In paper PMC12255121:
Results are given in words; binding and its absence hold for the method and conditions named. For some assays here: In cells and extracts the contact can be indirect. Some binding calls cover weakened binding; strength is not graded here. For some assays here: Tags and fused reporters may be left off the sequences shown.

By UniProt entry, the sequences of proteins in these tests, tags left out.
UniProt P08962: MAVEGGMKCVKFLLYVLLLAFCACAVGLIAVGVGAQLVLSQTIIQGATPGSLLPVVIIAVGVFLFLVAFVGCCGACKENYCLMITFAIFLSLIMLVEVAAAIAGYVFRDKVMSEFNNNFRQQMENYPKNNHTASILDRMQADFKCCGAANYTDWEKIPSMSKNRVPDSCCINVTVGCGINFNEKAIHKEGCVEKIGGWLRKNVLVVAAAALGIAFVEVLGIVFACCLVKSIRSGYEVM

T1: hOCT3-Cub-PLV (human organic cation transporter 3 fused to the C-terminal half of ubiquitin and protA-LexA-VP16) (human) (UniProt O75751)
T1 sequence: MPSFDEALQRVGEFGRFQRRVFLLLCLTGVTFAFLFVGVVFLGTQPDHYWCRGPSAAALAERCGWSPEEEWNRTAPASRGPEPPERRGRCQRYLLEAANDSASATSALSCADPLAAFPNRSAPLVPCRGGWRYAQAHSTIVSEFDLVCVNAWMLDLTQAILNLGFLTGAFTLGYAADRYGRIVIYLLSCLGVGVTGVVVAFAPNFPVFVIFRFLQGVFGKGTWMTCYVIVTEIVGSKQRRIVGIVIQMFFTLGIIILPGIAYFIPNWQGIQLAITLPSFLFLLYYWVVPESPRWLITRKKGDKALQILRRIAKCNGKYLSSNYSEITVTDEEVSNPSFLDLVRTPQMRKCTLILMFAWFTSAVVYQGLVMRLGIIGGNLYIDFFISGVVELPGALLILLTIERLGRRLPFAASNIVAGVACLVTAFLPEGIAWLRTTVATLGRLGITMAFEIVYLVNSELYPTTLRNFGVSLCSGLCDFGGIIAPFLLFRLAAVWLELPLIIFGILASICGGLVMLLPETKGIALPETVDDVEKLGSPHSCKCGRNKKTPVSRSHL

B1: human organic cation transporter 3 (hOCT3), stably expressed in HEK293 cells (protein, UniProt O75751 1-556)
chain: T1 sequence

Tests used:
[1] = molecular target: T1, hOCT3-Cub-PLV (human organic cation transporter 3 fused to the C-terminal half of ubiquitin and protA-LexA-VP16) (human); test: two-hybrid; mating-based split ubiquitin system (mbSUS) in yeast; bait hOCT3-Cub-PLV in THY.AP4 mated with prey Nub fusion in THY.AP5; growth on medium lacking Leu, Trp, Ade and His
[2] = molecular target: His-tagged CD63 (CD63 in the pcDNA6.F9 vector containing a FLAG and 6xHis-Tag) (UniProt P08962); test: pull-down; lysate of CD63-transfected HEK293 cells immobilized on Talon Sepharose beads via 6xHis tag, exposed 2 h to total lysates of HEK293 cells stably expressing hOCT3; lysis buffer with 1% Triton X-100; five washes (50 mM Na3PO4, 30 mM NaCl, 4 mM imidazole); elution with 150 mM imidazole; Western blot with anti-hOCT3

Molecule | binding [1] | binding [2]
NubG-CD63 (tetraspanin CD63 fused to the N-terminal half of ubiquitin) (from UniProt P08962 1-238) | binds | 
B1 |  | binds
